Assay results taken from article PMC12135937.
No constants are given. Whether binding was seen depends on the method and setting. Some results given as binding are weak or reduced against the parent protein; the word gives no strength.

Sequences of proteins named here, by UniProt entry; tags and fusion partners are left off. Residues count along the entry.
UniProt P08138, residues 29-427: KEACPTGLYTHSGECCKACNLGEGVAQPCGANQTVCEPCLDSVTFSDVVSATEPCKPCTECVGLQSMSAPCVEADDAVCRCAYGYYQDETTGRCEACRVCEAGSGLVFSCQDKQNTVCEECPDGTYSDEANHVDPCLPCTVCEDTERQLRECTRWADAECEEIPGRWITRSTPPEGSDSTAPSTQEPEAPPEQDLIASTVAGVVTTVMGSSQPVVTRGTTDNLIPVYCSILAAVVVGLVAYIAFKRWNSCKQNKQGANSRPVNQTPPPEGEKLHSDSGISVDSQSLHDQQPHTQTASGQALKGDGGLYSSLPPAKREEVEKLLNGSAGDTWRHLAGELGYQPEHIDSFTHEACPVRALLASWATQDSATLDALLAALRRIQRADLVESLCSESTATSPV

Biological target: p75^NTR-GFP, expressed on HEK293 cells (UniProt P08138)
Assay: flow cytometry on cells; cell-cell adhesion: HEK293 Freestyle cells expressing a Dpr (IRES GFP, challenger) mixed in equal volumes with cells expressing a DIP or DIP/Dpr (mCherry) in PBS 0.2% BSA pH 7.4, 96-well plates; percent GFP+mCherry double-positive events

B7-1-mCherry, expressed on HEK293 cells (from UniProt P33681 35-288) (ligand)
binding: binds
